Here are results for 36 compounds from PubChem BioAssay AID2685 (National Center for Advancing Translational Sciences (NCATS), 2010).

This is one part of the list. Shown are side measurements of this screen, not its main read-out; they come without a call. Compounds called inactive in the main read-out are mostly missing here. The note in brackets gives the kind of curve behind each potency; many fits are weak.

The assay can be described thus: qHTS Assay for Lipid Storage Modulators in Drosophila S3 Cells.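 As to cell number change: cells counted by Cell Tracker Red CMTPX staining in the red channel.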 The conditions noted are these: BODIPY lipid droplet fluorescence, 18-24 h; for cell number change: measured here: cell count max response, cells fed with added oleic acid. Put shortly: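 Drosophila S3 cells loaded with oleic acid (400 uM, as added) and compounds at several concentrations; lipid droplets imaged by 488-nm laser-scanning cytometry, 500–530 nm intensity and object ratio to cell channel. Percent activity normalized to 20 uM Triacsin C.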
In general terms: qHTS replaces the single test concentration by a dilution series.

Where [1] appears, read: measured here: lipid fluorescence (Fed channel) AC50, cells fed with added oleic acid.
The mark [2] stands for this setting: measured here: cell number channel AC50, cells fed with added oleic acid.

A word on the AC50: it is the midpoint of the concentration-response curve, whichever way the signal moves. Take `CS(=O)(=O)c1ccc(NS(=O)(=O)c2ccc(Cl)c(C(=O)NCc3ccco3)c2)cc1`: the cell number change stood at 2.38%. Besides, under setting [1], the AC50 was 3.66 µM [falling, single point].

As to `Nc1[nH]nc2ncc3cc4ccccc4nc3c12`, the cell number change is -63%. Further, the AC50 under setting [2] was 1.3 µM [falling, full curve, poor fit]. For the same compound, under setting [1], the AC50 is 0.651 µM [falling, full curve].

Consider `Cc1nc2sccc2c(=O)n1-c1cccc(Cl)c1`, for which the cell number change is -7.28%. For the same compound, the AC50 under setting [1] is 0.259 µM [rising, full curve, poor fit].

Take `COc1ccc(-c2ccc(-c3nnn(CC(C)=O)n3)cc2)cc1`: the cell number change came to 1.28%. Under setting [1], the AC50 was 5.17 µM [rising, partial curve, poor fit].

`CCn1c(SCC(=O)Nc2ccc(OC)cc2)nc2nc3c(cc2c1=O)CCCC3`: the cell number change was 17.3%.

For the compound `CC1CCCC(C)N1C(=O)Cn1cc(/C=C2/C(=O)Nc3ccccc32)c2ccccc21` (stereo unspecified), the AC50 under setting [1] was 20.6 µM [falling, partial curve].

Regarding `CCn1cc(C(=O)N2CCN(c3ccc(F)cc3)CC2)c2cc(OC)c(OC)cc2c1=O`, the cell number change is 30.9%. Moreover, under setting [2], the AC50 was 3.26 µM [rising, full curve].

As for `CC1CC(C)CN(CCCn2c(=S)[nH]c3ccccc3c2=O)C1` (stereo unspecified), the cell number change is -12.5%. Also, under setting [2], the AC50 was 0.13 µM [falling, full curve, poor fit]. Moreover, under setting [1], the AC50 was 0.00461 µM [falling, full curve, poor fit].

As for `CCOC(=O)C1=C(c2ccccc2)N=C2SCC(=O)N2C1c1ccc(OCC)c(OCC)c1` (stereo unspecified), the cell number change is -1.93%. In addition, the AC50 under setting [1] is 3.66 µM [rising, partial curve].

For the compound `CCOC(=O)c1ccc(N2C(=O)CC(N3CCC(C(=O)OCC)CC3)C2=O)cc1` (stereo unspecified), the cell number change was -12.4%.

Consider `C=CCn1c(C)c(C(C)=O)c(SC)nc1=S`, for which the cell number change was 12%. The AC50 under setting [1] was 0.00411 µM [falling, full curve, poor fit].

Turning to `Cc1ccc(-c2nnn(CC(=O)N(CC(=O)NCC3CCCO3)c3ccccc3)n2)o1` (stereo unspecified), the cell number change was -96.1%. The AC50 under setting [2] is 25.9 µM [falling, partial curve, poor fit].

For the compound `CC(OC(=O)CSc1ccc([N+](=O)[O-])cc1)C(=O)NC1CC1` (stereo unspecified), the cell number change was 11.2%. Also, the AC50 under setting [1] was 20.6 µM [falling, single point].

For `COc1ccc(-n2cnc3cc(NC(=O)c4ccco4)ccc32)cc1`, the AC50 under setting [1] is 3.26 µM [rising, partial curve].

For `O=C(CCNS(=O)(=O)c1ccccc1)OCC(=O)c1ccc[nH]1`, the cell number change was -6.76%. Moreover, the concentration at half-maximal activity (AC50) under setting [1] was 29.1 µM [falling, single point].

In the case of `COc1ccc(C(C)=O)cc1CC(=O)NC1CCCCCC1`, the cell number change was 11.2%.

As to `CCCCc1ccc(S(=O)(=O)N/N=C(/C)c2ccncc2)cc1`, the AC50 under setting [1] is 20.6 µM [falling, single point].

Consider `COc1cccc(CNS(=O)(=O)c2cccc(S(=O)(=O)N3CCOCC3)c2)c1`, for which the cell number change was 32.1%. Moreover, the AC50 under setting [2] was 29.1 µM [rising, single point]. In addition, under setting [1], the AC50 is 29.1 µM [rising, single point].

As for `Cc1cc(NS(=O)(=O)c2ccccc2)c(C)c(Cl)c1O`, the cell number change turned out to be 16.3%. Also, the AC50 under setting [1] is 0.116 µM [falling, single point].

As to `CC(C)(C)NC(=O)CSc1nnnn1C(C)(C)C`, the cell number change was -7.66%. The AC50 under setting [2] was 5.8 µM [falling, partial curve]. Under setting [1], the AC50 is 4.61 µM [falling, partial curve, poor fit].

In the case of `Cc1ccnc(Nc2nc(-c3c(C)nc4sccn34)cs2)c1`, the cell number change turned out to be 8.11%. The AC50 under setting [1] is 11.6 µM [rising, partial curve].

`Cc1cccc(-c2noc(C(C)NC(=O)c3ccco3)n2)c1` (stereo unspecified): the cell number change is -10.9%. Further, the AC50 under setting [1] was 0.206 µM [rising, single point].

For the compound `O=C(c1ccccc1F)N1CCN(c2ccc([N+](=O)[O-])c3ncccc23)CC1`, the AC50 under setting [2] was 6.51 µM [rising, single point].

Regarding `CC(c1ccccc1)N1C(=O)CC(Sc2ncccc2C(=O)O)C1=O` (stereo unspecified), the AC50 by setting is: under setting [2], 0.103 µM [falling, full curve, poor fit]; under setting [1], 1.03 µM [falling, full curve, poor fit].

For the compound `COc1ccc(-c2cc(C(=O)NC(C(=O)O)C(C)C)c(C)o2)cc1OC` (stereo unspecified), the cell number change is -8.67%. The AC50 under setting [1] is 3.26 µM [rising, single point].

Consider `CC(C)CN(C(=O)COC(=O)c1ccc2c(c1)OCO2)c1c(N)n(Cc2ccccc2)c(=O)[nH]c1=O`, for which the cell number change stood at 11%. Besides, under setting [1], the AC50 is 0.366 µM [falling, partial curve, poor fit].

Regarding `COc1ccc(C)cc1S(=O)(=O)N1CCN(C(=O)c2ncoc2-c2ccccc2F)CC1`, the cell number change turned out to be 14.5%. Moreover, the AC50 under setting [1] is 35.5 µM [falling, single point].

Consider `COC(=O)c1ccccc1NC(=S)NC(=O)c1ccccc1C`, for which the cell number change is -7.1%. Besides, the AC50 under setting [1] was 0.326 µM [rising, full curve].

In the case of `CCOC(=O)c1ccc(S(=O)(=O)N2CCC(C(=O)NCc3ccccc3OC)CC2)cc1`, the cell number change worked out at 44.1%. For the same compound, the AC50 under setting [2] was 20.6 µM [rising, partial curve, poor fit]. Moreover, under setting [1], the AC50 was 8.2 µM [rising, partial curve].

`CN1C=CC(=CC=C2C=CC(=O)C=C2)C=C1`: the cell number change came to 7.8%. Besides, the AC50 under setting [1] is 0.92 µM [falling, full curve, poor fit].

In the case of `Cc1cc(C)c(S(=O)(=O)c2ccccc2C)c(Oc2ccccc2)n1`, the cell number change was -62.3%. For the same compound, under setting [2], the AC50 is 23.1 µM [falling, single point]. Besides, under setting [1], the AC50 was 23.1 µM [falling, single point].

Consider `CCCn1c(SCC(=O)NCc2ccco2)nnc1C(C)C`, for which the cell number change was -21.7%. In addition, the AC50 under setting [1] is 9.2 µM [falling, partial curve, poor fit].

In the case of `O=C(CSc1nnc(NC(=O)C2CC2)s1)NCc1ccc(F)cc1`, the cell number change was determined as 26.6%. In addition, the concentration at half-maximal activity (AC50) under setting [1] was 1.64 µM [rising, partial curve].

With `Cc1[nH]c(C)c(S(=O)(=O)N2CCN(c3ccc(Cl)cc3)CC2)c1C(=O)N1CCCC1`, under setting [1], the AC50 was 3.66 µM [falling, single point].

As to `CCOC(=O)N1CCN(c2nc(C)c3c(n2)CC(C)CC3=O)CC1` (stereo unspecified), the cell number change is 71.6%. For the same compound, under setting [2], the AC50 was 1.84 µM [rising, full curve]. For the same compound, the AC50 under setting [1] was 1.46 µM [rising, full curve, poor fit].

`O=c1[nH]ncc(NCc2ccc(Cl)cc2)c1Cl`: the cell number change was -7.01%. The concentration at half-maximal activity (AC50) under setting [1] is 1.3 µM [falling, full curve].
